{"source": "paper PMC8394356", "about": "(Biomedicines, 2021)", "system": "reduced form GSH contents in brain extracts", "assay": "Reduced GSH levels in brain tissue extracts of treated mice", "assay_type": "in vivo", "details": "oral TT-1 200 mg/kg, donepezil 5 mg/kg; scopolamine-induced amnesiac mice", "experimental": "At the end of the TT-1 and TT-2 treatments, mice were sacrificed, and the whole brain of each ICR mouse was isolated and immediately stored at −80 °C for the measurement of residual AChE activity and the reduced GSH levels. The whole brain of each mouse was ground into powder by means of a mortar and pestle in liquid nitrogen and then extracted by adding 1 mL of 100 mM phosphate buffer (pH 7.5) to the ice bath. […]. The residual AChE activity of each brain extract was expressed as [A405sample−A405sample blank]/μg protein. The glutathione assay kit (no. 703002; Cayman Chemical Co.) was used to determine the reduced form GSH levels based on the reaction of GSH with DTNB reagents to generate a yellowish 5-thio-2-nitrobenzoic acid and expressed as A412 nm/μg protein.", "note": "Where a name gives a salt, the structure may show the parent alone."}
{"smiles": "COc1cc2c(cc1OC)C(=O)C(CC1CCN(Cc3ccccc3)CC1)C2", "note": "(stereo not shown) [donepezil, donepezil hydrochloride]", "values": [{"measurement": "reduced form GSH contents in brain extracts vs control", "result": "higher reduced form GSH contents"}]}
